# No constants are given. Whether binding was seen depends on the method and setting. Some binding calls cover weakened binding; strength is not graded here.
# The chains behind the UniProt entries cited, without tags or fusion partners. Where a name states a change or a piece, a line headed by the entry shows the natural chain unless it says otherwise.
# UniProt P11836: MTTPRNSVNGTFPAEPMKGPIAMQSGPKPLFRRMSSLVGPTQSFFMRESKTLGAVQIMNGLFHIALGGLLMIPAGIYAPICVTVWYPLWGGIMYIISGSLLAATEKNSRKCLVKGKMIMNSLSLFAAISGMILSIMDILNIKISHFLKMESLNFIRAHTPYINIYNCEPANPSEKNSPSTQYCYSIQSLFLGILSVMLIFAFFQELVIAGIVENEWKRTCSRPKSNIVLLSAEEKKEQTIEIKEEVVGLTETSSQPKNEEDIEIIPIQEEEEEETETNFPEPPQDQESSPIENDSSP
# Target: T1, CD20-Hoc fusion protein (human; T4 phage, UniProt P11836 142-187; P18056 1-376, limits assumed)
# T1 construct: also called Hoc-CD20; Hoc-CD
# Test: SPR
row,Binder,binding
1,"M24E (VHH, also called bt-M24E; anti-CD20 sdAb M24E) VHH: DVQLQASGGGLVQAGGSLRLSCAASGSTFSIKHHGWYRRAPGNQREWVAGISSENITNVAEAVKGRFTISRDNAKNTVYLQMNSLKVEDTAVYYCYAQDNDYRFLHRFWGQGTQVTVSL",binds
2,"M28C (VHH, also called bt-M28C; anti-CD20 sdAb M28C) VHH: DVQLQASGGGLVQAGGSLRLSCAASGSTFSIKHHGWYRRAPGNQREWVAGINSENITNVAGAVKGRFTISRDNAKNTVYLQMNSLKVEDTAVYFCYAQDNDYRFLHRFWGQGTQVTVSL",binds
3,"M112D (VHH, also called bt-M112D; anti-CD20 sdAb M112D) VHH: DVQLQASGGGLVQAEGSLRLSCAASGSTFGIKHHGWYRRAPGNQREWVAGISSENITNVAEAVKGRFTISRDNAKNTVYLQMNSLKVEDTAVYYCYAQDNNYRFLHRFWGQGTQVTVSL",binds
